Laboratory results taken from US20160032291.
At least one result comes from cells or an extract, where the contact may be indirect. For part of these data: A negative result means that nothing was seen under these conditions. For part of these data: The comparison behind a weaker result is the experiment's own reference, which may not be listed here. For part of these data: For at least one entry, the source does not settle the construct or the ends of the probe.

Chains of the proteins cited; added tags and fusions are not shown. Residues count along the entry.
UniProt P09564, 26-240: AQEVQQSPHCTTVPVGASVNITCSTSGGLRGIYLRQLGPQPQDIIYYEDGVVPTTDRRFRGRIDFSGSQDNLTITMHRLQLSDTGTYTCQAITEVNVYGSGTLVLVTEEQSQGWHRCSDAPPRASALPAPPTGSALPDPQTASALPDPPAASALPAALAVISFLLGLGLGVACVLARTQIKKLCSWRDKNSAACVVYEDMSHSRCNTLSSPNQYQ

What was measured:
[1] = target: CD7 (T-cell surface receptor) (Homo sapiens) (UniProt P09564); test: flow cytometry; conditions: protein on the cell surface
[2] = target: CD7 (T-cell surface receptor) (Homo sapiens) (UniProt P09564); test: binding assay; conditions: 2'-F pyrimidines (all C and U); confocal; surface binding at 4 C increased by anti-CD7 mAb; internalised at 37 C only without mAb; protein on the cell surface; protein details: stably transfected CD7-HeLa cells; label: Cy3 or FAM
[3] = 2'-F pyrimidines (all C and U), 400 nM, 4 C, binds CD7-HeLa more than HeLa, reduced by anti-CD7 mAb, protein details: stably transfected CD7-HeLa cells, label: …
[4] = 2'-F pyrimidines (all C and U), 400 nM, 4 C, binds CD7-HeLa more than HeLa, reduced by anti-CD7 mAb, protein details: stably transfected CD7-HeLa cells, label: FAM or Cy3
[5] = 2'-F pyrimidines (all C and U), Jurkat, 400 nM overnight 37 C, association significantly different from transfection control, protein details: endogenous on Jurkat cells (ATCC TIB-152), label: FAM or Cy3

Q: Does “GGGAGACAAGAATAAGCATGAGCGCCAATATGACCGCGACATCGTTTGAATAGTTCCTGGGGATCTTTCGACAGGAGGCTCACAACAGG [CSIR 3.14 DNA]” bind ([1]; Jurkat, 400 nM overnight, DNA isoform not able to bind significantly, protein details: endogenous on Jurkat cells (ATCC TIB-152), label: FAM, single-stranded DNA, variant of CSIR 3.14)?
A: no binding

Q: Does “GGGAGACAAGAAUAAGCAUGACCGUGCUCUGUGACAGGACUUUACUUAGGGAUAAGGGUUGAAACUUCGACAGGAGGCUCACAACAGGC [CSIR 3.47]” bind [1, 3]?
A: binds

Q: Does “GGGAGACAAGAAUAAGCAUGAGCGCCAAUAUGACCGCGACAUCGUUUGAAUAGUUCCUGGGGAUCUUUCGACAGGAGGCUCACAACAGG [CSIR 3.14]” bind ([1]; 2'-F pyrimidines (all C and U), 400 nM, 4 C, binds CD7-HeLa more than HeLa, reduced by anti-CD7 mAb, protein details: stably transfected CD7-HeLa cells, label: Cy3 or FAM)?
A: binds

Q: Does “GGGAGACAAGAAUAAGCAUGCAAUUUAUCGAGACCCAGAUAACCGAUUUAUACGCAGACGAUAAGUUUCGACAGGAGGCUCACAACAGGC [CSIR 3.31]” bind ([1]; 2'-F pyrimidines (all C and U), Jurkat, 400 nM, non-binding negative control (1.97% at 6 h, 7.6% at 24 h), protein details: endogenous on Jurkat cells (ATCC TIB-152), label: FAM or Cy3)?
A: no binding

Q: Does “GGGAGACAAGAAUAAGCAUGCAGGUCCCACCGCCCCGCUCCCUUAUCAGCUUGGAAUACGUUUUCAUUCGACAGGAGGCUCACAACAGGC [CSIR 3.53]” bind ([1]; 2'-F pyrimidines (all C and U), 400 nM, 4 C, binds CD7-HeLa more than HeLa, unchanged by anti-CD7 mAb, internalisation at 37 C not CD7 specific, protein details: stably transfected CD7-HeLa cells, label: …)?
A: binds

Q: Does “GGGAGACAAGAAUAAGCAUGCCCCUUGCGGUUCCCACAUUAUCUCUCUGCUAUCCCGAUGGCCCGAUUCGACAGGAGGCUCACAACAGGC [CSIR 3.8]” bind [1, 3]?
A: binds

Q: Does “GGGAGACAAGAAUAAGCAUGCCGGAUAAGGUCGUCCGUAGUACCGGUUAACGUACCAGCCUUACUCUUCGACAGGAGGCUCACAACAGGC [CSIR 3.15]” bind [1, 3]?
A: binds

Q: Does “GGGAGACAAGAAUAAGCAUGCGUCCCACACCCUCCGAUUCCGACCAGGACUGGAUACUUACACUUUUUCGACAGGAGGCUCACAACAGGC [CSIR 3.42]” bind [2]?
A: binds

Q: Does “GGGAGACAAGAAUAAGCAUGCUGGCAAUAAACGGCUAUAAGUAAAGUUCGACAGGAGGCUCACAACAGGC [CSIR 3.48]” bind [1, 4]?
A: binds

Q: Does “GGGAGACAAGAAUAAGCAUGCUGGCAAUAAACGGCUAUAAGUAAAGUUCGACAGGAGGCUCACAACAGGC [CSIR 3.48]” bind [1, 5]?
A: binds more weakly

Q: Does “GGGAGACAAGAAUAAGCAUGGAGUGCGUCGCCACUACUCCUCUCAUUACCUCUUGCAUUUCACUAUUCGACAGGAGGCUCACAACAGGC [CSIR 3.23]” bind ([1]; 2'-F pyrimidines (all C and U), 400 nM, 4 C, binds CD7-HeLa more than HeLa, reduced by mAb, CD7-specific internalisation at 37 C by confocal, protein details: stably transfected CD7-HeLa cells, label: FAM)?
A: binds

Q: Does “GGGAGACAAGAAUAAGCAUGGAUCUUUCGACAGGAGGCUCACAACAGGC [CSIR 3.35]” bind [1, 4]?
A: binds

Q: Does “GGGAGACAAGAAUAAGCAUGGAUCUUUCGACAGGAGGCUCACAACAGGC [CSIR 3.35]” bind [1, 5]?
A: binds more weakly

Q: Does “GGGAGACAAGAAUAAGCAUGGCCGAUCCAUCCUCCCCACGACCAUCAUGAAUCCCAACAGGAACUUCGACAGGAGGCUCACAACAGGC [CSIR 3.10]” bind [1, 3]?
A: binds

Q: Does “GGGAGACAAGAAUAAGCAUGGGCAGCGAUAGACUGUUAACUACAGACGGGAGUCCGCGUUUCGACAGGAGGCUCACAACAGGC [CSIR 3.36]” bind [1, 3]?
A: binds

Q: Does “GGGAGACAAGAAUAAGCAUGUAAUUCCAGCAUAAAAAAGAUAGGUACUAUUAAUACACGACCAGAAUUCGACAGGAGGCUCACAACAGGC [CSIR 3.6]” bind ([1]; 2'-F pyrimidines (all C and U), 400 nM, 4 C, binds CD7-HeLa more than HeLa, also listed as increased with anti-CD7 mAb, protein details: stably transfected CD7-HeLa cells, label: FAM)?
A: binds

Q: Does “GGGAGACAAGAAUAAGCAUGUCAUCUCACCGCCAUAAUCCUCAACAUUCUCCCCACCCGAUUCCCGUUCGACAGGAGGCUCACAACAGGC [CSIR 3.54]” bind [1, 3]?
A: binds

Q: Does “GGGAGACAAGAAUAAGCAUGUUACCUACAAAAAAGAAAAAGAAUUAAACGGAUUAAGAAGGGGAAAAAGUAGUUCGACAGGAGGCUCACAACAGGC [CSIR 3.45]” bind [1, 3]?
A: binds
